Data source: PubChem BioAssay AID1224828 (NIAID, 2016)
The deposit covers about 17,000 reagents; shown is a random part of them. In the full data, 762 (4.5%) were called active. 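Active calls include both raised and lowered p65 entry, mostly lowered; wells with fewer than 50 cells lack a z-score.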 Raw values are not corrected between plates.

Screen: 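Knock-downs that increase or decrease LPS-induced p65 nuclear translocation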 (primary screen)
Cells: mouse RAW264.7 G9 macrophage reporter cells (GFP-p65, Tnf promoter-mCherry)
Reagent: siRNA pool against mouse genes, 100 nM
Duration: 2 days siRNA transfection, then 40 min LPS before fixation
Conditions: LPS (Salmonella minnesota R595) at 10 ng/ml
Detection: 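Microscopy ratio of nuclear to perinuclear-ring GFP-p65 signal, scaled to the plate median; gene score is the average of two replicate robust z-scores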
Scale: p65 translocation robust z-score: higher = more nuclear NF-kappaB p65 after LPS than the plate median; nuclear/cytoplasmic p65 ratio: higher = more nuclear NF-kappaB p65
Hit rule: 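Active if robust z is above 3.3 (negative regulators) or below -1.56, the Tlr4 control median (positive regulators); activity score 50 or more; control wells not called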
Calls: active = hit (p65 shift raised or lowered); inactive = no clear change

Oxct1 (3-oxoacid CoA transferase 1)
- p65 translocation robust z-score: -0.06
- nuclear/cytoplasmic p65 ratio, rep 1: 1.38
- nuclear/cytoplasmic p65 ratio, rep 2: 1.46
- low cell count flag: enough cells to score
- activity call: inactive

Sac3d1 (SAC3 domain containing 1)
- nuclear/cytoplasmic p65 ratio, rep 1: 1.38
- nuclear/cytoplasmic p65 ratio, rep 2: 1.32
- low cell count flag: fewer than 50 cells per well; well left out of scoring
- activity call: inactive

Lca5 (Leber congenital amaurosis 5 (human))
- nuclear/cytoplasmic p65 ratio, rep 1: 1.46
- nuclear/cytoplasmic p65 ratio, rep 2: 1.46
- low cell count flag: fewer than 50 cells per well; well left out of scoring
- activity call: inactive

Nt5e (5' nucleotidase, ecto)
- p65 translocation robust z-score: -0.56
- nuclear/cytoplasmic p65 ratio, rep 1: 1.41
- nuclear/cytoplasmic p65 ratio, rep 2: 1.31
- low cell count flag: enough cells to score
- activity call: inactive

Phf24 (PHD finger protein 24)
- nuclear/cytoplasmic p65 ratio, rep 1: 1.59
- nuclear/cytoplasmic p65 ratio, rep 2: 1.45
- low cell count flag: fewer than 50 cells per well; well left out of scoring
- activity call: inactive

Cmtm6 (CKLF-like MARVEL transmembrane domain containing 6)
- p65 translocation robust z-score: 0.82
- nuclear/cytoplasmic p65 ratio, rep 1: 1.62
- nuclear/cytoplasmic p65 ratio, rep 2: 2.02
- low cell count flag: enough cells to score
- activity call: inactive

Klhl24 (kelch-like 24)
- p65 translocation robust z-score: 3.03
- nuclear/cytoplasmic p65 ratio, rep 1: 1.47
- nuclear/cytoplasmic p65 ratio, rep 2: 1.81
- low cell count flag: enough cells to score
- activity call: inactive

Pcbp4 (poly(rC) binding protein 4)
- p65 translocation robust z-score: -0.14
- nuclear/cytoplasmic p65 ratio, rep 1: 1.5
- nuclear/cytoplasmic p65 ratio, rep 2: 1.33
- low cell count flag: enough cells to score
- activity call: inactive

Or4n5 (olfactory receptor family 4 subfamily N member 5)
- p65 translocation robust z-score: -0.8
- nuclear/cytoplasmic p65 ratio, rep 1: 1.1
- nuclear/cytoplasmic p65 ratio, rep 2: 1.18
- low cell count flag: enough cells to score
- activity call: inactive

Smim3 (small integral membrane protein 3)
- nuclear/cytoplasmic p65 ratio, rep 1: 1.06
- nuclear/cytoplasmic p65 ratio, rep 2: 0.862
- low cell count flag: fewer than 50 cells per well; well left out of scoring
- activity call: inactive

Erg28 (ergosterol biosynthesis 28)
- p65 translocation robust z-score: 0.32
- nuclear/cytoplasmic p65 ratio, rep 1: 1.56
- nuclear/cytoplasmic p65 ratio, rep 2: 1.51
- low cell count flag: enough cells to score
- activity call: inactive

Kcnn1
- p65 translocation robust z-score: -2.19
- nuclear/cytoplasmic p65 ratio, rep 1: 1.23
- nuclear/cytoplasmic p65 ratio, rep 2: 1.06
- low cell count flag: enough cells to score
- activity call: active

Vmn1r84 (vomeronasal 1 receptor 84)
- p65 translocation robust z-score: -1.16
- nuclear/cytoplasmic p65 ratio, rep 1: 1.24
- nuclear/cytoplasmic p65 ratio, rep 2: 1.18
- low cell count flag: enough cells to score
- activity call: inactive

Fbxl2 (F-box and leucine-rich repeat protein 2)
- p65 translocation robust z-score: 0.6
- nuclear/cytoplasmic p65 ratio, rep 1: 1.63
- nuclear/cytoplasmic p65 ratio, rep 2: 1.37
- low cell count flag: enough cells to score
- activity call: inactive

Rfwd3 (ring finger and WD repeat domain 3)
- p65 translocation robust z-score: 0.06
- nuclear/cytoplasmic p65 ratio, rep 1: 1.61
- nuclear/cytoplasmic p65 ratio, rep 2: 1.83
- low cell count flag: enough cells to score
- activity call: inactive

Glrb (glycine receptor, beta subunit)
- p65 translocation robust z-score: 0.32
- nuclear/cytoplasmic p65 ratio, rep 1: 1.45
- nuclear/cytoplasmic p65 ratio, rep 2: 1.52
- low cell count flag: enough cells to score
- activity call: inactive

Pde7a (phosphodiesterase 7A)
- p65 translocation robust z-score: -0.31
- nuclear/cytoplasmic p65 ratio, rep 1: 1.4
- nuclear/cytoplasmic p65 ratio, rep 2: 1.38
- low cell count flag: enough cells to score
- activity call: inactive

BC005537 (cDNA sequence BC005537)
- p65 translocation robust z-score: -0.57
- nuclear/cytoplasmic p65 ratio, rep 1: 1.34
- nuclear/cytoplasmic p65 ratio, rep 2: 1.75
- low cell count flag: enough cells to score
- activity call: inactive

Asb9 (ankyrin repeat and SOCS box-containing 9)
- p65 translocation robust z-score: 0.03
- nuclear/cytoplasmic p65 ratio, rep 1: 1.51
- nuclear/cytoplasmic p65 ratio, rep 2: 1.61
- low cell count flag: enough cells to score
- activity call: inactive

Lrriq4 (leucine-rich repeats and IQ motif containing 4)
- p65 translocation robust z-score: 2.24
- nuclear/cytoplasmic p65 ratio, rep 1: 1.6
- nuclear/cytoplasmic p65 ratio, rep 2: 1.57
- low cell count flag: enough cells to score
- activity call: inactive

Zfp24 (zinc finger protein 24)
- p65 translocation robust z-score: -0.43
- nuclear/cytoplasmic p65 ratio, rep 1: 1.45
- nuclear/cytoplasmic p65 ratio, rep 2: 1.45
- low cell count flag: enough cells to score
- activity call: inactive

No new results follow: entries from further up.
Or4n5 (olfactory receptor family 4 subfamily N member 5)
- p65 translocation robust z-score: -0.8
- nuclear/cytoplasmic p65 ratio, rep 1: 1.1
- nuclear/cytoplasmic p65 ratio, rep 2: 1.18
- low cell count flag: enough cells to score
- activity call: inactive

Smim3 (small integral membrane protein 3)
- nuclear/cytoplasmic p65 ratio, rep 1: 1.06
- nuclear/cytoplasmic p65 ratio, rep 2: 0.862
- low cell count flag: fewer than 50 cells per well; well left out of scoring
- activity call: inactive
